Some entries share one result that the patent states for a list of compounds. At least one structure is not confirmed: it was looked up by name or label, or the drawing left a doubt.
Tests used:
Assay type in all cases: in vivo
Puccinia recondita = experiment: Puccinia Test (wheat)/protective; conditions: protective, application rate 125 g/ha, evaluation 10 days after inoculation
Phytophthora infestans = conditions: tomato, protective, application rate 100 g/ha, evaluation 3 days after inoculation
Plasmopara viticola = experiment: Plasmopara Test (Grapevine)/Protective; conditions: protective, application rate 100 g/ha, evaluation 6 days after inoculation
Sphaerotheca fuliginea = experiment: Sphaerotheca Test (Cucumber)/Protective; conditions: protective, application rate 100 g/ha, evaluation 10 days after inoculation
Venturia inaequalis = experiment: Venturia Test (Apple)/Protective; conditions: protective, application rate 10 of g/ha, evaluation 12 days after inoculation
Pyricularia oryzae = conditions: rice, protective, application rate 250 g/ha, evaluation 7 days after inoculation
[1] = test system: Erysiphe graminis f. sp. hordei; experiment: Erysiphe Test (Barley)/Protective; conditions: protective, application rate 750 g/ha, evaluation 7 days after inoculation

CON=C(C(=O)N(C)O)c1ccccc1Oc1ncnc(Oc2ccccc2Cl)c1F [Example 1]
efficacy (Puccinia recondita): ≥ 95% | efficacy (Phytophthora infestans): ≥ 86% | efficacy (Plasmopara viticola): ≥ 95% | efficacy (Sphaerotheca fuliginea): ≥ 95% | efficacy (Venturia inaequalis): ≥ 96% | efficacy (Pyricularia oryzae): ≥ 90% | efficacy [1]: ≥ 80%

CON=C(C(=O)N(C)O)c1ccccc1Oc1ncnc(Oc2ccccc2F)c1F [Example 4]
efficacy (Puccinia recondita): ≥ 95% | efficacy (Pyricularia oryzae): ≥ 90%

CON=C(C(=O)N(C)O)c1ccccc1Oc1ncnc(Oc2cccc(Cl)c2C)c1F [Example 5]
efficacy (Phytophthora infestans): ≥ 86% | efficacy (Plasmopara viticola): ≥ 95% | efficacy (Sphaerotheca fuliginea): ≥ 95% | efficacy (Venturia inaequalis): ≥ 96% | efficacy (Pyricularia oryzae): ≥ 90% | efficacy [1]: ≥ 80%

CON=C(C(=O)N(C)O)c1ccccc1Oc1ncnc(Oc2cccc(Cl)c2Cl)c1F [Example 7]
efficacy (Phytophthora infestans): ≥ 86% | efficacy (Plasmopara viticola): ≥ 95% | efficacy (Sphaerotheca fuliginea): ≥ 95% | efficacy (Venturia inaequalis): ≥ 96% | efficacy (Pyricularia oryzae): ≥ 90% | efficacy [1]: ≥ 80%

CON=C(C(=O)N(C)O)c1ccccc1Oc1ncnc(Oc2ccccc2C#N)c1F [Example 8]
efficacy (Puccinia recondita): ≥ 95%
